Experimental data: PubChem BioAssay AID1259424 (University of Nebraska Medical Center, 2018)

Purpose: 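Rank knockdowns across the genome by resemblance to the KSR1 depletion profile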 (primary screen)
Cells: human HCT116 colon cancer cells
Reagent: siRNA pool against human genes, 50 nM
Read-out: 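Log2 levels of six mRNAs (branched-DNA multiplex), adjusted by two reference genes and the non-targeting median, then scored against the average KSR1 knockdown pattern as Pearson r and euclidean distance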
Reading the numbers: mean correlation with KSR1 profile and KSR1 correlation: higher = expression change more like KSR1 knockdown; mean distance from KSR1 profile: higher = expression change less like KSR1 knockdown
This is one part, drawn at random, of about 14,000 reagents. 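Higher correlation or smaller distance means closer resemblance to KSR1 loss; control wells, including KSR1 knockdowns, recur on many plates.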 The record does not give: the time to read-out.

no.	Gene	mean correlation with KSR1 profile	mean distance from KSR1 profile	KSR1 correlation, replicate 1	KSR1 correlation, replicate 2	KSR1 correlation, replicate 3
1	CYP3A5 (cytochrome P450 family 3 subfamily A member 5)	-0.0935	2.45	-0.641	0.223	-0.117
2	HLA-DQA1 (major histocompatibility complex, class II, DQ alpha 1)	-0.65	2.26	-0.675	-0.608	-0.671
3	HEATR5A (HEAT repeat containing 5A)	0.258	1.35	0.735	-0.269	-0.068
4	ATXN7 (ataxin 7)	0.457	2.35	0.204	0.467	0.579
5	MCUB	-0.573	3.28	-0.583	-0.539	-0.392
6	SAFB (scaffold attachment factor B)	-0.485	1.92	-0.512	-0.487	-0.325
7	SEC31A (SEC31 homolog A, COPII component)	-0.226	1.48	-0.0409	-0.202	-0.334
8	HLA-DRB1 (major histocompatibility complex, class II, DR beta 1)	0.167	2.29	-0.161	0.277	0.207
9	LCT (lactase)	-0.0426	2	-0.366	0.221	-0.0638
10	FNDC3B (fibronectin type III domain containing 3B)	-0.496	4.43	-0.54	-0.203	-0.126
11	KCNC2 (potassium voltage-gated channel subfamily C member 2)	-0.269	3.34	-0.24	-0.387	-0.245
12	USP31 (ubiquitin specific peptidase 31)	-0.638	2.55	-0.218	-0.66	-0.819
13	CBX4 (chromobox 4)	0.525	3.52	-0.0567	0.401	0.636
14	UTP18 (UTP18 small subunit processome component)	-0.335	4.19	-0.423	-0.263	-0.336
15	HNRNPD (heterogeneous nuclear ribonucleoprotein D)	0.782	2.59	0.81	0.751	0.824
16	ACKR5 (atypical chemokine receptor 5)	0.151	2.62	0.155	0.223	-0.0385
17	ABCF2 (ATP binding cassette subfamily F member 2)	0.137	1.55	0.298	0.222	0.133
18	ANXA1 (annexin A1)	-0.139	1.16	-0.338	-0.0231	-0.09
19	ERCC4 (ERCC excision repair 4, endonuclease catalytic subunit)	-0.476	3.98	-0.426	-0.533	-0.485
20	DMRTA2 (DMRT like family A2)	-0.504	2.41	-0.35	-0.393	-0.608
21	VARS1 (valyl-tRNA synthetase 1)	-0.406	2.09	-0.442	-0.536	-0.0272
22	KRTAP4-1 (keratin associated protein 4-1)	-0.0128	3.08	0.195	-0.0992	-0.447
23	JAK1 (Janus kinase 1)	0.634	1.09	0.767	0.572	0.0459
24	APOA2 (apolipoprotein A2)	0.625	0.854	0.655	0.443	0.0724
25	ABCG1 (ATP binding cassette subfamily G member 1)	-0.551	2.72	-0.307	-0.434	-0.574
26	CPXM1 (carboxypeptidase X, M14 family member 1)	-0.346	2.17	-0.321	-0.586	-0.572
27	PVT1 (Pvt1 oncogene)	0.276	2.17	0.0705	0.345	0.426
28	STAM2 (signal transducing adaptor molecule 2)	0.445	1.84	0.522	0.289	0.455
29	MED6 (mediator complex subunit 6)	0.00438	3.88	0.129	0.0915	-0.602
30	PCP4 (Purkinje cell protein 4)	-0.315	1.97	-0.0263	-0.126	-0.524
31	NKX3-1 (NK3 homeobox 1)	-0.639	2.65	-0.565	-0.603	-0.432
32	ANG (angiogenin)	0.813	1.92	0.748	0.4	0.834
33	FBXW2 (F-box and WD repeat domain containing 2)	-0.774	1.79	-0.799	-0.877	-0.643
34	KCNJ14 (potassium inwardly rectifying channel subfamily J member 14)	-0.442	2.15	-0.474	-0.513	-0.399
35	GLT8D2 (glycosyltransferase 8 domain containing 2)	0.406	3.18	0.316	0.365	0.394
36	SLC12A6	-0.476	2.03	-0.549	-0.674	-0.218
37	TFB2M (transcription factor B2, mitochondrial)	0.701	0.843	0.712	0.703	0.705
38	RAB6A (RAB6A, member RAS oncogene family)	-0.676	1.42	-0.61	-0.741	-0.281
39	GP1BA (glycoprotein Ib platelet subunit alpha)	0.133	3.45	0.139	0.146	0.0673
40	CTBP2 (C-terminal binding protein 2)	0.0964	2.32	-0.158	0.266	0.347
41	TSPYL4 (TSPY like 4)	-0.101	1.32	-0.116	-0.406	0.202
42	SSX3 (SSX family member 3)	0.0418	2	-0.406	0.238	0.195
43	CARNS1 (carnosine synthase 1)	0.329	1.81	0.394	0.28	0.439
44	RASIP1 (Ras interacting protein 1)	-0.323	5.12	-0.0745	-0.298	-0.404
45	ZNF277 (zinc finger protein 277)	-0.538	2.31	-0.512	-0.551	-0.535
46	NAA35 (N-alpha-acetyltransferase 35, NatC auxiliary subunit)	-0.663	1.92	-0.76	-0.56	-0.606
47	ZBTB7B (zinc finger and BTB domain containing 7B)	-0.524	2.11	0.13	-0.317	-0.694
48	TBX18 (T-box transcription factor 18)	-0.938	1.98	-0.915	-0.837	-0.938
49	GAS2 (growth arrest specific 2)	-0.233	2.62	-0.303	-0.407	-0.291
50	S100A9 (S100 calcium binding protein A9)	-0.717	1.97	-0.717	-0.441	-0.656
